Experiment: in vitro
Conditions: human

COC(=O)C1=C(C)NC(C)=C(C(=O)OC)C1c1ccccc1[N+](=O)[O-] [Nifidipine, nifedipine]
CC50: > 100 µM

Reference: publication PMC11768584 (Viruses, 2025)
